From patent US10624840B2, “Method for performing cosmetic surgical procedures using tumescent anesthesia and oral sedation” (priority 2017, dated 2020) come the findings set out here.

For the data set, the system named is patient. Conditions: lidocaine about 45 mg/kg to about 55 mg/kg of body weight in tumescent anesthetizing solution; multiple implementations of the process.

Take `CCN(CC)CC(=O)Nc1c(C)cccc1C` [lidocaine]: the “unwanted negative reactions on a patient / lidocaine toxicity” value is listed as “does not usually have any unwanted negative reactions on a patient, nor is it common for lidocaine toxicity to occur”.
